US20160017348A1
These are yes or no findings as the source states them, for the method shown. For some assays here: Binding seen in cells or lysates may run through a third protein. Some entries that bind do so weakly or less than the wild type. For some assays here: Where a sequence is shown, tags or fusion partners need not be part of it.

T1: HA-SUVH2 (Arabidopsis thaliana) (UniProt O22781)
T1 sequence: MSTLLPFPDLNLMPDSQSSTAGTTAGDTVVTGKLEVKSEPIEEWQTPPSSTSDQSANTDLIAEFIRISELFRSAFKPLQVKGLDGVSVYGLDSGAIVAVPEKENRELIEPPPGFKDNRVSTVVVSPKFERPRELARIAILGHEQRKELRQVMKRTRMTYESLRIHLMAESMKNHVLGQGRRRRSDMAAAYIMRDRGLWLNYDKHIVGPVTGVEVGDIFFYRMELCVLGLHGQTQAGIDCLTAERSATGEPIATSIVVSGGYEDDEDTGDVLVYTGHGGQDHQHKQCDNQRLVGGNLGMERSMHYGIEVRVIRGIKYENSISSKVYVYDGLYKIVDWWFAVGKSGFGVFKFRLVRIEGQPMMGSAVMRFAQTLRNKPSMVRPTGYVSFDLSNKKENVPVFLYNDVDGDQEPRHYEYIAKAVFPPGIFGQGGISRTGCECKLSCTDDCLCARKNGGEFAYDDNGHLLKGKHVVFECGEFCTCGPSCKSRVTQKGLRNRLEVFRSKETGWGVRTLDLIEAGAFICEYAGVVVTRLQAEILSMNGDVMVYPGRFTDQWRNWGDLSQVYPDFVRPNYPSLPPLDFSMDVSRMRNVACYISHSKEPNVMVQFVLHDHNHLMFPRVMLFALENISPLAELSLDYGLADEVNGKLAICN


Experiments:
[1] = target: T1, HA-SUVH2 (Arabidopsis thaliana); assay: co-immunoprecipitation on Flag magnetic beads (figure legend)
[2] = target: T1, HA-SUVH2 (Arabidopsis thaliana); assay: co-immunoprecipitation on Flag magnetic beads from Arabidopsis flowers; HA and Flag blots
[3] = target: H3K9me2 peptide containing H3K4me3 modification (UniProt P59226); assay: ITC
[4] = target: H3K9me2 peptide containing H3K4me1 modification (UniProt P59226); assay: ITC
[5] = target: H3K9me2 peptide containing H3K4me2 modification (UniProt P59226); assay: ITC

| binding [1] | binding [2] | binding [3] | binding [4] | binding [5] | Binder |
| --- | --- | --- | --- | --- | --- |
| binds | binds |  |  |  | DRD1-Flag (protein, not shown: small tags and cut ends) MGFVYIVMTGYYKNVHKRKQNQVDDGPEAKRVKSSAKVIDYSNPFAVSNMLEALDSGKFGSVSKELEEIADMRMDLVKRSIWLYPSLAYTVFEAEKTMDNQQVVEGVINLDDDDDDDTDVEKKALCVVPSSSEIVLLDSDDEDNERQRPMYQFQSTLVQHQKNQGDVTPLIPQCSFEEVDLGRGKEMPSAIKAIVEGQTSRGKVLPIENGVVNEKGVYVGVEEDDSDNESEAADEDLGNIWNEMALSIECSKDVARETSHKEKADVVEDCEHSFILKDDMGYVCRVCGVIEKSILEIIDVQFTKAKRNTRTYASETRTKRFGESDNELKFSEEGLMIGGLAAHPTHAAEMKPHQIEGFQFLCSNLVADDPGGCIMAHAPGSGKTFMIISFMQSFLAKYPQAKPLVVLPKGILPTWKKEFVRWQVEDIPLLDFYSAKAENRAQQLSILKQWMEKKSILFLGYQQFSTIVCDDTTDSLSCQEILLKVPSILILDEGHTPRNEDTNLLQSLAQVQTPRKVVLSGTLYQNHVKEVFNILNLVRPKFLKLDTSKSAVKRILAYTPCDVRGRLTGSNSDMASMFNETVEHTLQKSEDFTVKIKVIQDLREMTKKVLHYYKGDFLDELPGLADFTVVLNLSPKQLNEVKKLRREKRKFKVSAVGSAIYLHPKLKVFSDKSDDVSDTTMDEMVEKLDLNEGVKAKFFLNLINLCDSAGEKLLVFSQYLIPLKFLERLAALAKGWKLGKEVFVLTGNTSSEQREWSMETFNSSPDAKIFFGSIKACGEGISLVGASRILILDVPLNPSVTRQAIGRAFRPGQKKMVHAYRLIAGSSPEEEDHNTCFKKEVISKMWFEWNEYCGYQNFEVETIDVDEAGDTFLESPALREDIRVLYKR |
|  |  | binds | binds | binds | SHH1 SAWADEE domain (residues 125-258) (protein) ADLAFEAKSARDYAWYDVSSFLTYRVLRTGELEVRVRFSGFDNRHDEWVNVKTSVRERSIPVEPSECGRVNVGDLLLCFQEREDQALYCDGHVLNIKRGIHDHARCNCVFLVRYELDNTEESLGLERICRRPEE |
